The values that follow come from PMC4220973, “Structural insights into the human RyR2 N-terminal region involved in cardiac arrhythmias” (Acta Crystallographica Section D: Biological Crystallography, 2014).

Assay in all cases: SEC; analytical size-exclusion chromatography at 4°C; self-association, monomer to dimer; both purified
In general terms: In gel filtration, larger molecules generally elute earlier.

For experiment [1], the target named is hRyR2^1-606 I419F/R420W double mutant (human) (UniProt Q92736).
The target of experiment [2] is hRyR2^1-606 R420W mutant (human) (UniProt Q92736).
The target in experiment [3] is human ryanodine receptor 2 N-terminal fragment encompassing amino acids 1-606 (hRyR2^1-606), wild type (human) (UniProt Q92736).

Results are given in words; binding and its absence hold for the method and conditions named.

As for “hRyR2^1-606 I419F/R420W double mutant (from UniProt Q92736 1-606) (domain or fragment)”, the binding entry in experiment [1] was “no binding”. For “hRyR2^1-606 R420W mutant (from UniProt Q92736 1-606) (domain or fragment)”, in experiment [2], the binding result is given as “no binding”. For the substance “human ryanodine receptor 2 N-terminal fragment encompassing amino acids 1-606 (hRyR2^1-606), wild type (from UniProt Q92736 1-606) (domain or fragment)”, the binding result in experiment [3] was “no binding”.
